# Laboratory results published in PubChem BioAssay.
# This is one part of the list.
# Legend:
# Experiment in all cases: small molecules altering RGS protein interactions with GNAO1 – biochemical, multiplexed beads, flow cytometry, RGS4/7/8/16/19, primary screen (AID 1504);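 further: fluorescently labeled Galpha-o bound to GDP with aluminium fluoride binding biotinylated RGS beads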
# [1] = molecular target: Regulator of G-protein signaling 16 (Homo sapiens) (UniProt O15492); conditions: multiplexed bead flow cytometry, measured here: RGS16 interaction, at 10 µM
# [2] = molecular target: Regulator of G-protein signaling 19 (Homo sapiens) (UniProt P49795); conditions: multiplexed bead flow cytometry, measured here: RGS19 interaction, at 10 µM
# [3] = molecular target: Regulator of G-protein signaling 7 (Homo sapiens) (UniProt P49802); conditions: multiplexed bead flow cytometry, measured here: RGS7 interaction, at 10 µM
# [4] = molecular target: Regulator of G-protein signaling 8 (Homo sapiens) (UniProt P57771); conditions: multiplexed bead flow cytometry, measured here: RGS8 interaction, at 10 µM
smiles,measurement,setting,value
O=C(NCC1(N2CCOCC2)CCCCC1)c1cc2ccccc2o1,RGS16–Galpha-o binding response,[1],328%
same,RGS19–Galpha-o binding response,[2],103%
same,RGS7–Galpha-o binding response,[3],177%
same,RGS8–Galpha-o binding response,[4],137%
